# Several values for one entry are separate records, joined by “and”; a condition that tells them apart may be missing. Equal values may be shown once. The name of at least one read-out is uncertain.
# Tests used:
# uterus of infantile mice [1] = assay: Uterotrophic test (in-vivo test on infantile mice); conditions: uterus dry weight (mg)/body weight (g) × 100; 0.4 μg/animal s.c. on three consecutive days (oestrone reference, one per experiment)
# Method: (§1) The effectiveness of these compounds was found in an in-vivo test on infantile mice. This test is extensively described in Cancer Treatment Reviews 1984, 11, 147, and J. Med. Chem., 1984, 27, 1439.
# (§2) ^a dosage/animal, administered s.c. on three consecutive days in oliv
# (§3) ^b uterus dry weight (mg)/body weight (g) × 100, determined 24
# (§4) hours after the final injection.
# uterus of infantile mice [2] = assay: Anti-uterotrophic test (in-vivo test on infantile mice); conditions: uterus dry weight (mg)/body weight (g) × 100; oestrone 0.4 μg alone (reference, one per experiment)
# Method: as §1, §2, §3, §4
# ^c simultaneous administration of 0.4 μg oestron/animal/day.
smiles,measurement,setting,value
"C[C@]12CC[C@@H]3c4ccc(O)cc4CC[C@H]3[C@@H]1CCC2=O [oestrone, reference compound]","uterotrophic test, effect",uterus of infantile mice [1],53.4 ± 3.6 mg/g × 100 and 54.6 ± 6.1 mg/g × 100 and 67.0 ± 9.0 mg/g × 100 and 63.5 ± 5.7 mg/g × 100 and 46.3 ± 1.4 mg/g × 100 and 41.0 ± 6.6 mg/g × 100 and 49.6 ± 7.4 mg/g × 100 and 49.0 ± 6.4 mg/g × 100
same,"anti-uterotrophic test, effect",uterus of infantile mice [2],42.0 ± 6.2 mg/g × 100 and 54.6 ± 6.1 mg/g × 100 and 67.0 ± 9.0 mg/g × 100 and 63.5 ± 5.7 mg/g × 100 and 46.3 ± 1.4 mg/g × 100 and 41.0 ± 6.6 mg/g × 100 and 49.6 ± 7.4 mg/g × 100 and 49.0 ± 6.4 mg/g × 100
